Binding data for one molecule are collected here from PMC10752531.

No constants are given. Whether binding was seen depends on the method and setting. Binding can be weak; no strength is given. Where a sequence is shown, tags or fusion partners need not be part of it.

The target in this assay is GAL4 DBD-ALP-1b (C. elegans). The assay can be described thus: two-hybrid; GAL4 DBD and GAL4 AD fusions co-transformed into S. cerevisiae PJ69-4A; growth on SC-Ura-Leu-His plates with 5 mM 5-aminotriazole, 30°C, 4 days.

B1: GAL4 AD-MLC-4 (protein, UniProt Q09510 1-172)
chain: MASRKTVNRRQRPQRATSNVFAMFDQAQIQEFKEAFNMIDQNRDGFIDQEDLKDMFASLGKEVTEQFIDSMINEAPGAQPINFTMFLTLFGEKLTGTDPEEVIRNAFQCFDEDNSGKLNEEHLRELLTTMGERYSEEQVDELFRDAPIKGGQFDYVEFTRMLKHGTKDKDEA
In the case of B1, the binding entry is listed as “binds”.
